{"source": "paper PMC5108032", "about": "“Discovery of a Quinoline-4-carboxamide Derivative with a Novel Mechanism of Action, Multistage Antimalarial Activity, and Potent in Vivo Efficacy” (Journal of Medicinal Chemistry, 2016)", "assay": "Parallel artificial membrane permeability assay (PAMPA)", "format": "in vitro ADME", "conditions": "pH 7.4, read-out: PAMPA Pe", "protocol": "Immediately, at time zero, then at 3, 6, 9, 15 and 30 min an aliquot (50 μL) of the incubation mixture was removed and mixed with acetonitrile (100 μL) to stop the reaction. Internal standard was added to all samples, the samples centrifuged to sediment precipitated protein and the plates then sealed prior to UPLC-MS/MS analysis using a Quattro Premier XE (Waters Corporation, USA). XLfit (IDBS, UK) was used to calculate the exponential decay and consequently the rate constant (k) from the ratio of peak area of test compound to internal standard at each timepoint. The rate of intrinsic clearance (CLi) of each test compound was then calculated using the following calculation: CLi (mL/min/g liver) = k x V x Microsomal protein yield Where V (mL/mg protein) is the incubation volume/mg protein added and microsomal protein yield is […] Verapamil (0.5 μM) was used as a positive control to confirm acceptable assay performance. Experiments were performed using a single time-course experiment. […] All samples were analysed by UPLC-MS/MS on a Quattro Premier XE Mass Spectrometer (Waters Corporation, USA). The unbound fraction was determined as the ratio of the peak area in buffer to that in plasma. […] The effective permeability, Pe, of the compound was measured at […] […] Pe was calculated as shown in the below equation: […]"}
{"compound": "CC(C)NCC(O)COc1ccc(CC(N)=O)cc1", "note": "(stereo not shown) [atenolol, reference compound]", "values": [{"measurement": "Papp at 5 h, 10 µM", "value": 0.07, "unit": "×10⁻⁶ cm/s"}]}
